Data as given in PubChem BioAssay AID1259308 (NCATS, 2017)
The deposit covers about 59,000 reagents; this is an unselected part. About 1,510 of all reagents (2.6%) count as active. 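Calls use total luciferase alone and ignore viability, so some active siRNAs may act by altering cell number.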 Further read-outs or replicates are left out here. Reagent sequences are not shown.

Test: 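Knock-downs that increase output of a recombinant reporter protein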 (primary screen)
System: human HEK293 embryonic kidney cells stably expressing firefly luciferase (HEK-CMV-Luc2-Hygro)
Reagent: single siRNA against human genes, 0.8 pmol siRNA per well
Timing: 72 h
Read-out: 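Luciferase light (ONE-Glo) measured on one replicate plate set and viability (CellTiter-Glo) on the other, scaled to a negative control siRNA, with robust z-scores and luciferase per cell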
Direction: total luciferase, z-score and total luciferase, % of control: higher = more reporter protein produced; luciferase per cell, z-score: higher = more reporter output per viable cell
Rule for the call: 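An siRNA counts as active if its total luciferase robust z-score exceeds 3; genes with two or more such siRNAs out of three were retested with fresh siRNAs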
Calls: active = raised luciferase; inactive = no rise

no.	gene knocked down	PubChem SID	total luciferase, z-score	total luciferase, % of control	luciferase per cell, z-score	outcome
1	ABRA	SID160757526	-0.185	78.2	-0.428	inactive
2	ABRA	SID160757527	0.72	96.2	0.281	inactive
3	ABRA	SID160757528	1.52	112	0.158	inactive
4	DUBR	SID160764781	-0.451	72.9	0.675	inactive
5	DUBR	SID160764782	-1.73	47.5	-0.00481	inactive
6	DUBR	SID160764783	0.433	90.5	0.732	inactive
7	CCDC82	SID160749415	0.891	99.6	0.86	inactive
8	CCDC82	SID160749417	0.0607	83.1	1.03	inactive
9	CCDC82	SID160749418	-0.725	67.5	-0.893	inactive
10	RPL13P12	SID160725190	-0.172	78.5	-0.549	inactive
11	RPL13P12	SID160765838	0.813	98	0.745	inactive
12	RPL13P12	SID160765839	-1.36	54.8	-1.39	inactive
13	RWDD3	SID160737325	0.21	86.1	0.248	inactive
14	RWDD3	SID160737326	-0.446	73	-0.623	inactive
15	RWDD3	SID160737327	0.239	86.6	-0.0387	inactive
16	EPHA7	SID160760929	-1.08	60.4	-0.924	inactive
17	EPHA7	SID160760938	0.693	95.7	0.694	inactive
18	EPHA7	SID160760947	3.2	146	2.81	active
19	RIOX2	SID160752799	0.0355	82.6	0.673	inactive
20	RIOX2	SID160752800	-0.55	70.9	-0.806	inactive
21	RIOX2	SID160752801	0.852	98.8	-0.115	inactive
22	LINC01235	SID160767299	-2.45	33.1	-0.787	inactive
23	LINC01235	SID160767300	0.0924	83.7	0.906	inactive
24	LINC01235	SID160767301	-0.949	63	-0.36	inactive
25	COL1A1	SID160745674	0.743	96.7	0.766	inactive
26	COL1A1	SID160745683	0.133	84.5	0.461	inactive
27	COL1A1	SID160745694	1.1	104	1.97	inactive
28	S100B	SID160716311	0.833	98.5	0.437	inactive
29	S100B	SID160716313	-0.151	78.9	-0.266	inactive
30	S100B	SID160716314	0.584	93.5	0.475	inactive
31	SCCPDH	SID160740044	1.06	103	0.674	inactive
32	SCCPDH	SID160740046	-2.1	40.2	-2.79	inactive
33	SCCPDH	SID160740047	-0.261	76.7	-0.575	inactive

Records above called active, once more:
gene knocked down	PubChem SID	total luciferase, z-score	total luciferase, % of control	luciferase per cell, z-score	outcome
EPHA7	SID160760947	3.2	146	2.81	active

The list goes on.
no.	gene knocked down	PubChem SID	total luciferase, z-score	total luciferase, % of control	luciferase per cell, z-score	outcome
34	STX2	SID160761179	1.61	114	2.58	inactive
35	STX2	SID160761190	0.0202	82.3	-0.817	inactive
36	STX2	SID160761201	0.46	91	0.276	inactive
37	LOC728353 (retired record)	SID160771736	1.42	110	1.11	inactive
38	LOC728353 (retired record)	SID160771737	0.536	92.5	0.625	inactive
39	LOC728353 (retired record)	SID160771738	1.67	115	1.48	inactive
40	PUSL1	SID160732424	0.279	87.4	0.44	inactive
41	PUSL1	SID160756535	0.516	92.1	1.03	inactive
42	PUSL1	SID160756536	0.319	88.2	0.921	inactive
43	LINC01144	SID160725335	0.518	92.2	-0.136	inactive
44	LINC01144	SID160725336	-0.0142	81.6	-0.00796	inactive
45	LINC01144	SID160733327	-0.409	73.8	0.133	inactive
46	MCM2	SID160777048	1.06	103	0.513	inactive
47	MCM2	SID160777049	-0.675	68.5	-0.455	inactive
48	MCM2	SID160777050	-0.77	66.6	-0.985	inactive
49	ALOX5	SID160716636	-0.315	75.6	-0.193	inactive
50	ALOX5	SID160716646	0.973	101	0.674	inactive
51	ALOX5	SID160730878	-0.0446	81	0.152	inactive
52	HEY2	SID160730856	-2.34	35.4	-3.14	inactive
53	HEY2	SID160736388	-0.298	76	0.0689	inactive
54	HEY2	SID160736390	-0.864	64.7	-1.14	inactive
55	KCNB2	SID160721911	0.327	88.4	0.532	inactive
56	KCNB2	SID160721912	-0.223	77.5	-0.343	inactive
57	KCNB2	SID160721913	-0.288	76.2	-0.75	inactive
58	ARF6	SID160719672	-0.679	68.4	-0.593	inactive
59	ARF6	SID160719682	-0.0405	81.1	-0.361	inactive
60	ARF6	SID160731171	-1.29	56.2	-2.08	inactive
61	FAF1	SID160729993	-0.0659	80.6	0.268	inactive
62	FAF1	SID160729994	-1.1	60	-1.55	inactive
63	FAF1	SID160729995	1.29	107	1.08	inactive
64	NCKIPSD	SID160740919	-0.248	77	-0.115	inactive
65	NCKIPSD	SID160740921	1.09	104	1.12	inactive
66	NCKIPSD	SID160740922	-0.797	66	-0.28	inactive
67	CFB	SID160725367	0.404	89.9	-0.143	inactive
68	CFB	SID160725433	1.46	111	1.83	inactive
69	CFB	SID160725493	-0.727	67.4	-0.563	inactive
70	HLA-K	SID160726156	1.99	121	1.49	inactive
71	HLA-K	SID160770451	-1.89	44.3	-1.6	inactive
72	HLA-K	SID160770452	2	122	1.86	inactive
73	STPG1	SID160753734	-0.00227	81.8	-0.179	inactive
74	STPG1	SID160753736	-0.304	75.8	-0.333	inactive
75	STPG1	SID160753737	0.927	100	0.531	inactive
